Experimental data reported in patent publication US10857167B2, “Use of oligosaccharide compositions to enhance weight gain” (Children's Hospital Medical Center, priority 2015, dated 2020).
The source gives many values for each of these; only a part stands here.

Tested on: distal small bowel gene expression
Assay: RNA sequencing / transcriptional analysis of small bowel 56 days after ICR (2′-FL signature response)
Format: in vivo, mouse
Text: Luminal small bowel contents were expressed into AllProtect Tissue Reagent (Qiagen Inc, CA). Bacterial DNA was extracted using the AllPrep DNA/RNA Mini Kit (Qiagen Inc, CA), according to kit instructions and prior to sequencing (described below). Small bowel tissue samples for RNA were placed into RNA Later (Life Technologies, NY). RNA extraction was accomplished following Qiagen RNeasy Plus Kit instruction (Qiagen Inc, CA). All nucleic acid samples were then stored at -80 Celsius until sequenced (described below). Transcriptional analysis was carried out on resected and harvested small bowel samples obtained from operated mice taken to 8 weeks. Murine RNA sequencing libraries were prepared from approximately 1.5 μg RNA using the TruSeq RNA Sample Preparation Kit (Illumina, Calif.) and sequenced using the HiSeq 2000 Sequencing System (Illumina, Calif.) with single-end 50 bp reads. Following removal of primers and barcodes, sequences were aligned to the mm10 genome using reference annotations from UCSC (Rosenbloom et al. (2015) Nucleic acids research 43: […]-681) (n=36,186 entities). Aligned reads were quantified and used to compute reads per kilobase per million mapped reads (RPKM); raw counts were then normalized using the DESeq algorithm and each harvested sample was baselined to its own resected sample. A filter was applied to the data, requiring at least three reads in all samples of at least one of the four experimental conditions (n=14,489 entities). The data discussed in this publication have been deposited in NCBI's Gene Expression Omnibus and are accessible through NCBI Gene Expression Omnibus (GEO) Series accession number GSE72590. Edgar et al. (2002) Nucleic acids research 30: 207-210. In order to characterize the impact of 2'-FL supplementation while accounting for the effect of ileoecal resection, a t-test was applied between resected and harvested samples within control and experimental animals. Significance was set at a p-value of ≤0.05 and a fold change of 3, which generated 2,576 differentially regulated entities across two comparisons. Gene set unions and intersections of the control and experimental gene sets were identified through Venn diagrams. From the master list, the gene list specific to animals supplemented with 2'-FL were removed in order to identify genes differentially regulated only by ICR (n=546 entities); this gene set characterizes the adaptive response. Further, the 2'-FL response (n=2,030 entities) was identified by removing the adaptive response signature described above from the master list, leaving only genes regulated by 2'-FL supplementation after ICR which were not found in the non-supplemented adaptive response. Heatmaps were generated using hierarchical clustering with the Pearson's Centered distance metric and the average linkage rule; both entities and samples were clustered. All genomic analyses described above were performed in Strand NGS (Strand Life Sciences, CA). Gene list functional enrichment was initially discovered using ToppFun, a member of the ToppGene Suite. Chen et al. (2009) Nucleic acids research 37: […]-311. No statistical correction was selected. Gene lists were further analyzed using ClueGO, a plugin for Cytoscape designed to decipher functionally grouped gene ontology and pathway annotation networks. Bindea et al. (2009) Bioinformatics 25: 1091-1093. At the time of data analysis, the annotation files were updated from sources to Jan. 1, 2015. “GO Term Fusion” was enabled to manage ontologic term redundancy and network specificity was set to medium. Results were restricted to pathways with p≤0.05 using Benjamini-Hochberg correction and Kappa scoring was set to 0.4. Biocyc annotations were assigned a rectangle, gene ontology biologic processes were assigned an ellipse, and […] annotations were assigned a diamond shape. No meaning was assigned to size or color. […]

C[C@@H]1O[C@@H](O[C@H]2[C@H](O[C@H]3[C@H](O)[C@@H](O)C(O)O[C@@H]3CO)O[C@H](CO)[C@H](O)[C@@H]2O)[C@@H](O)[C@H](O)[C@@H]1O (stereo partly shown) [2′-FL, 2′-fucosyllactose]
Fold Change (Pre- to Post-op) (gene Slc10a6): −4.135
Fold Change (Pre- to Post-op) (gene Slc12a4): −3.23
Fold Change (Pre- to Post-op) (gene Slc12a7): −3.214
Fold Change (Pre- to Post-op) (gene Slc16a2): −3.982
Fold Change (Pre- to Post-op) (gene Slc18a3): −3.831
Fold Change (Pre- to Post-op) (gene Slc25a23): −4.08
Fold Change (Pre- to Post-op) (gene Slc26a2): −3.385
Fold Change (Pre- to Post-op) (gene Slc27a1): −3.365
Fold Change (Pre- to Post-op) (gene Slc29a3): −6.657
Fold Change (Pre- to Post-op) (gene Slc29a4): −8.795
Fold Change (Pre- to Post-op) (gene Slc35d3): −3.219
Fold Change (Pre- to Post-op) (gene Slc35f1): −4.695
Fold Change (Pre- to Post-op) (gene Slc36a2): −12.88
Fold Change (Pre- to Post-op) (gene Slc38a1): −4.668
Fold Change (Pre- to Post-op) (gene Slc38a3): −3.363
Fold Change (Pre- to Post-op) (gene Slc41a1): −6.805
Fold Change (Pre- to Post-op) (gene Slc44a2): −3.36
Fold Change (Pre- to Post-op) (gene Slc52a3): −3.531
Fold Change (Pre- to Post-op) (gene Slco2a1): −3.663
Fold Change (Pre- to Post-op) (gene Slco3a1): −3.762
Fold Change (Pre- to Post-op) (gene Slfn8): −3.54
Fold Change (Pre- to Post-op) (gene Slfn10-ps): −5.224
Fold Change (Pre- to Post-op) (gene Slit2): −4.689
Fold Change (Pre- to Post-op) (gene Sltm): −3.235
Fold Change (Pre- to Post-op) (gene Smad3): −3.943
Fold Change (Pre- to Post-op) (gene Smad9): −9.063
Fold Change (Pre- to Post-op) (gene Smarca2): −3.748
Fold Change (Pre- to Post-op) (gene Smarca4): −3.199
Fold Change (Pre- to Post-op) (gene Smarcc1): −3.386
Fold Change (Pre- to Post-op) (gene Smarcc2): −4.201
Fold Change (Pre- to Post-op) (gene Smc1a): −3.44
Fold Change (Pre- to Post-op) (gene Smg6): −3.269
Fold Change (Pre- to Post-op) (gene Snap91): −6.873
Fold Change (Pre- to Post-op) (gene Snapc4): −3.061
Fold Change (Pre- to Post-op) (gene Sncaip): −3.352
Fold Change (Pre- to Post-op) (gene Snph): −5.496
Fold Change (Pre- to Post-op) (gene Sntb1): −6.247
Fold Change (Pre- to Post-op) (gene Snx29): −4.109
Fold Change (Pre- to Post-op) (gene Snx30): −7.296
Fold Change (Pre- to Post-op) (gene Sobp): −4.113
Fold Change (Pre- to Post-op) (gene Socs7): −4.313
Fold Change (Pre- to Post-op) (gene Sorbs3): −3.021
Fold Change (Pre- to Post-op) (gene Sort1): −3.517
Fold Change (Pre- to Post-op) (gene Sox4): −3.393
Fold Change (Pre- to Post-op) (gene Sox5): −3.24
Fold Change (Pre- to Post-op) (gene Sox6): −3.424
Fold Change (Pre- to Post-op) (gene Sox18): −4.518
Fold Change (Pre- to Post-op) (gene Sp2): −4.073
Fold Change (Pre- to Post-op) (gene Sparcl1): −4.284
Fold Change (Pre- to Post-op) (gene Spata13): −3.562
Fold Change (Pre- to Post-op) (gene Spock2): −8.059
Fold Change (Pre- to Post-op) (gene Spred2): −3.381
Fold Change (Pre- to Post-op) (gene Spry1): −3.34
Fold Change (Pre- to Post-op) (gene Sptan1): −4.234
Fold Change (Pre- to Post-op) (gene Sptb): −9.371
Fold Change (Pre- to Post-op) (gene Srgap1): −8.901
Fold Change (Pre- to Post-op) (gene Srgap3): −6.097
Fold Change (Pre- to Post-op) (gene Srrm2): −3.923
Fold Change (Pre- to Post-op) (gene Ssbp3): −3.347
Fold Change (Pre- to Post-op) (gene Ssh1): −5.471
Fold Change (Pre- to Post-op) (gene St3gal2): −3.178
Fold Change (Pre- to Post-op) (gene Stard13): −3.362
Fold Change (Pre- to Post-op) (gene Steap4): −4.915
Fold Change (Pre- to Post-op) (gene Stim1): −3.038
Fold Change (Pre- to Post-op) (gene Stk32a): −3.423
Fold Change (Pre- to Post-op) (gene Ston1): −7.253
Fold Change (Pre- to Post-op) (gene Stox2): −6.347
Fold Change (Pre- to Post-op) (gene Strn): −3.934
Fold Change (Pre- to Post-op) (gene Stxbp1): −5.639
Fold Change (Pre- to Post-op) (gene Sufu): −8.462
Fold Change (Pre- to Post-op) (gene Sun2): −3.705
Fold Change (Pre- to Post-op) (gene Supt6): −3.709
Fold Change (Pre- to Post-op) (gene Sv2a): −5.005
Fold Change (Pre- to Post-op) (gene Syde1): −4.563
Fold Change (Pre- to Post-op) (gene Sympk): −3.344
Fold Change (Pre- to Post-op) (gene Syne1): −5.644
Fold Change (Pre- to Post-op) (gene Synj2): −3.88
Fold Change (Pre- to Post-op) (gene Szt2): −3.549
Fold Change (Pre- to Post-op) (gene Tacc1): −3.983
Fold Change (Pre- to Post-op) (gene Tacc2): −4.161
Fold Change (Pre- to Post-op) (gene Tacr1): −5.076
Fold Change (Pre- to Post-op) (gene Tacr2): −3.784
Fold Change (Pre- to Post-op) (gene Taf3): −4.215
Fold Change (Pre- to Post-op) (gene Taf15): −3.475
Fold Change (Pre- to Post-op) (gene Tagln): 3.03
Fold Change (Pre- to Post-op) (gene Taok3): −4.099
Fold Change (Pre- to Post-op) (gene Tbc1d2b): −3.66
Fold Change (Pre- to Post-op) (gene Tbc1d9): −3.213
Fold Change (Pre- to Post-op) (gene Tbc1d9b): −3.102
Fold Change (Pre- to Post-op) (gene Tcf7): −3.908
Fold Change (Pre- to Post-op) (gene Tchh): −3.639
Fold Change (Pre- to Post-op) (gene Tcof1): −5.131
Fold Change (Pre- to Post-op) (gene Tead1): −5.051
Fold Change (Pre- to Post-op) (gene Tek): −3.204
Fold Change (Pre- to Post-op) (gene Tenc1): −6.479
Fold Change (Pre- to Post-op) (gene Tert): −3.356
Fold Change (Pre- to Post-op) (gene Tet1): −3.292
Fold Change (Pre- to Post-op) (gene Tet3): −4.82
Fold Change (Pre- to Post-op) (gene Tfcp2l1): −5.377
Fold Change (Pre- to Post-op) (gene Tgfb1): −3.309
Fold Change (Pre- to Post-op) (gene Tgfb1i1): −4.123
Fold Change (Pre- to Post-op) (gene Tgfb2): −3.975
Fold Change (Pre- to Post-op) (gene Thada): −5.268
Fold Change (Pre- to Post-op) (gene Thsd4): −6.921
Fold Change (Pre- to Post-op) (gene Ticrr): −3.16
Fold Change (Pre- to Post-op) (gene Tie1): −3.806
Fold Change (Pre- to Post-op) (gene Tigd5): −3.757
Fold Change (Pre- to Post-op) (gene Timp4): −5.593
Fold Change (Pre- to Post-op) (gene Tll1): −3.264
Fold Change (Pre- to Post-op) (gene Tln1): −5.597
Fold Change (Pre- to Post-op) (gene Tln2): −4.77
Fold Change (Pre- to Post-op) (gene Tm9sf4): −3.106
Fold Change (Pre- to Post-op) (gene Tmed8): −4.234
Fold Change (Pre- to Post-op) (gene Tmem2): −3.098
Fold Change (Pre- to Post-op) (gene Tmem8b): −6.932
Fold Change (Pre- to Post-op) (gene Tmem59l): −6.998
Fold Change (Pre- to Post-op) (gene Tmem63a): −3.046
Fold Change (Pre- to Post-op) (gene Tmem104): −5.425
Fold Change (Pre- to Post-op) (gene Tmem130): −6.718
Fold Change (Pre- to Post-op) (gene Tmem131): −4.328
Fold Change (Pre- to Post-op) (gene Tmem163): −5.177
